Source: the supplement of paper PMC5949888
Most values lie at the floor of the assay. Slopes are relative: functional sequences can read slightly below zero.

system: Saccharomyces cerevisiae PS128 hsf1 delta, HSF1(1-493) fusion; experiment: growth estimate (transactivation domain function in HSF1 fusion, heat-shock survival) (a.u. (slope of normalised read count over time)); higher = stronger growth at 37°C, i.e. more transactivation activity; details: library: random library

| Substance | growth estimate |
| --- | --- |
| LNNTRWGRT | < -0.25 |
| HTGDIAMIFV | < -0.25 |
| CSSEVSEINVEYFSRLD | 0.0485 |
| IVTPGIIRVVENQPCSNSSE | < -0.25 |
| DPALRDVLFQFTILAQCAAS | < -0.25 |
| VPEQT | < -0.25 |
| RMRLKWCRCLLRNPPTGTRY | < -0.25 |
| SYAVGVLSRALSTWDFAVKV | -0.232 |
| PRWLSRVNSRTRSGLDMSWG | < -0.25 |
| GDTRAAIHGGRVGECSLV | < -0.25 |
| LLNRQASVRRQDASCGRI | < -0.25 |
| SHHRG | < -0.25 |
| YEDYVFKSWSFELSADSSSA | < -0.25 |
| ESCIVRHAWLTDSVSLSRSG | < -0.25 |
| RASSSCNVRNSCIGR | < -0.25 |
| KRTVTFCPGQTKAHGVSRFA | < -0.25 |
| MGLGITSFAVPG | < -0.25 |
| SSALLIQSKGI | < -0.25 |
| FGHIALVLIP | < -0.25 |
| CEC | < -0.25 |
| ICGDC | < -0.25 |
| VFLLTFWGTPECGPSHRIQP | < -0.25 |
| DTGT | < -0.25 |
| SRTKDW | < -0.25 |
| SVTGSSSYLESSPPVSPTMR | < -0.25 |
| GVYTCGGSRPLRTVRETESF | < -0.25 |

| Substance | growth estimate |
| --- | --- |
| SSLGQMTLNLADWLDVAIVE | < -0.25 |
| CRA | < -0.25 |
| STLH | < -0.25 |
| SDMT | < -0.25 |
| LLLAIG | < -0.25 |
| FAHVTLSLLKR | < -0.25 |
| WWPLHECP | < -0.25 |
| IDSSDYHHRRAQTMVDLTRL | < -0.25 |
| AQVLFCRWFLGHGQNPVGKD | < -0.25 |
| DHRQADLKGDGAVNSDKNTS | < -0.25 |
| TADIEKISRLAADEYCNLIE | -0.246 |
| GSSNELSQKYGSYNSEVCRT | < -0.25 |
| LVEGYVTF | < -0.25 |
| IPLSGTYSGRDA | < -0.25 |
| AQVYKICPPRGVCM | < -0.25 |
| TLYAQE | < -0.25 |
| EGLCFAYPWTSFEIGNTDCC | < -0.25 |
| YYAPKVGRWVISSMCVRGNQ | < -0.25 |
| QKS | < -0.25 |
| AQREVTNPASCGYS | < -0.25 |
| VAWLETYATHIRRFSTFGSA | < -0.25 |
| DYQFQHP | < -0.25 |
| EGV | < -0.25 |
| WSVASSVATMG | < -0.25 |
| LCAHIL | < -0.25 |
| IVFVVGTTISVVRTVLRSEV | < -0.25 |

Taken from the listing for reference:

| Substance | growth estimate |
| --- | --- |
| VFLLTFWGTPECGPSHRIQP | < -0.25 |
| DTGT | < -0.25 |
| SRTKDW | < -0.25 |

More records follow.

| Substance | growth estimate |
| --- | --- |
| RCWE | < -0.25 |
| IQFQPWILAGGRFAG | < -0.25 |
| PKECRMTGHI | < -0.25 |
| VVYAVKERNFRDGVDDCIKS | 0.0276 |
| IHTVMYQRAPSPSRCQMVTR | < -0.25 |
| FARWD | < -0.25 |
| RSQGRCRMGGGTVVGSWLH | -0.231 |
| SPQGEISGFQV | < -0.25 |
| GTISVTVAILRANLSQ | < -0.25 |
| AAKLTYRLNTRELVQPLSGP | < -0.25 |
| CRSKIIKAGVMFGDV | < -0.25 |
| PTFVRECPRP | < -0.25 |
| STAGTAKIVAWLAGSSLLPC | < -0.25 |
| LTKRKGDLFQPRDERSAIRE | < -0.25 |
| LMFIV | < -0.25 |
| EYEVAGHGGWFVWSNSITRR | < -0.25 |
| EPVFCIPAAGT | < -0.25 |
| GSGGP | < -0.25 |
| TKYK | < -0.25 |
| RDRLWDWPDAYTSQDGMQVC | < -0.25 |
| IALGPTRATGPNPRLSS | < -0.25 |
| LLRTRKRI | < -0.25 |
| MAGYCRLAALGDSGASPDSA | < -0.25 |
| YRQSRGSVASGT | < -0.25 |
| VRLDERGRMYVNFLYEIIGD | < -0.25 |
| VANGSVHREQTFWCVHHG | < -0.25 |

| Substance | growth estimate |
| --- | --- |
| HVRLEGFVKGLDYRGSQQSV | < -0.25 |
| PSLCGRALKIRRCGLAPVSS | < -0.25 |
| SLVRCVNI | -0.157 |
| SILRASRTGTAGGLRSDAMR | < -0.25 |
| WWQGVSDS | < -0.25 |
| QKPAGRQRVKHRL | < -0.25 |
| IWKVTARVNLES | < -0.25 |
| VEFSLVRTHSWLGSAIA | < -0.25 |
| SKGNSGTLDPGFMSKSALGR | < -0.25 |
| PNSLRHKEAPVSVTPTSHLG | < -0.25 |
| TDSKPRASENGDFVEGLNSQ | < -0.25 |
| SNI | < -0.25 |
| LVC | < -0.25 |
| VPEYVRSMAG | < -0.25 |
| VWDRRHEQSGICT | < -0.25 |
| TLEAD | < -0.25 |
| NGHTTHYGIRLLLRQATPRV | < -0.25 |
| RGTTSSVTYHRLCVWAVRTS | < -0.25 |
| IFCSWASKGLNKPVSDFCDA | < -0.25 |
| IRVK | < -0.25 |
| TKIAAHVFPDMFRGVGDARL | < -0.25 |
| NGKCWA | < -0.25 |
| RTGT | < -0.25 |
